This is one part of the list.
system: T1, CTL2-GFP (C. trachomatis L2/434/Bu, GFP-expressing); parameters: species or system HeLa; Intracellular C. trachomatis growth in HeLa cells, bulk GFP fluorescence relative to DMSO; details: bulk GFP, single well; 28.5 h, 10 µM; inhibitor
T1 construct: L2/434/Bu, GFP-expressing

| Structure (SMILES) | % of control remaining |
| --- | --- |
| O=C(O)c1ccc(-c2n[nH]c(=O)c3c2CCCC3)cc1 [CBK287868] | 118.592% |
| COCCn1ccnc1C1CCN(C(=O)COc2cccc(F)c2)CC1 [CBK307362] | 108.639% |
| Cc1nccn1CCC(=O)NCCc1ccc(N(C)C)cc1 [CBK281954] | 127.904% |
| Cc1nnc2n1-c1ccccc1SC(c1ccccc1)C2 (stereo not drawn) [CBK016040] | 98.918% |
| CC(C)(C)c1cc(CN2CCN(c3ccccn3)CC2)cc(C(C)(C)C)c1O [CBK261520] | 76.4151% |
| COc1cc(C(=O)N2CCC3(CC2)CC(=O)c2cc(C)ccc2O3)cc(-c2ccc(OC)c(OC)c2)c1 [CBK168271] | 137.183% |
| Cc1nc(=O)c(-c2ccccc2)c(C)n1-c1ccc(OCC(=O)O)cc1 [CBK286615] | 129.358% |
| CCc1ccc2c(c1)C(CCNC(=O)c1ncccc1F)C(=O)N2 (stereo not drawn) [CBK304727] | 109.003% |
| CC(=O)Nc1ccc(-c2cncc(NCCCO)n2)cc1 [CBK065598] | 109.565% |
| O=c1[nH]c(=O)c2cc(S(=O)(=O)N3CCC(c4ccccc4)C3)ccc2[nH]1 (stereo not drawn) [CBK286382] | 98.1751% |
| CN(C)Cc1c(O)ccc2occ(C(=O)c3ccccc3)c12 [CBK261965] | 119.638% |
| COc1ccccc1C(=O)Nc1ccc2nc(SCC(=O)NC3CC3)sc2c1 [CBK070791] | 93.7577% |
| CCOc1ccccc1-c1noc(CSc2nnc(-c3ccncc3)n2-c2cccc(C)c2)n1 [CBK269076] | 111.712% |
| CN(Cc1cccc(C(F)(F)F)c1)C(=O)c1cn(CC2CCCO2)nn1 (stereo not drawn) [CBK304360] | 109.204% |
| Cc1noc(C)c1S(N)(=O)=O [CBK022939] | 111.977% |
| Cc1cc(OC(C)C(=O)Nc2ccc(S(=O)(=O)Nc3onc(C)c3C)cc2)cc(C)c1Cl (stereo not drawn) [CBK267887] | 94.0193% |
| Cc1n[nH]c(C)c1CCC(=O)N/N=C/c1ccc(Cl)cc1Cl [CBK262901] | 94.983% |
| CCCn1nc(C)c(-c2cncn2CC(C)n2nc(C)cc2C)c1C (stereo not drawn) [CBK281793] | 132.167% |
| COc1cccc(NC(=O)C2C(C(=O)O)C3C=CC2C32CC2)c1 (stereo not drawn) [CBK287106] | 122.166% |
| COc1ccc(NS(=O)(=O)c2c(Cl)cccc2Cl)c(C(=O)NCc2ccccc2)c1 [CBK113952] | 107.498% |
| Cc1ccc(CN(Cc2ccco2)CC(O)COCc2ccco2)s1 (stereo not drawn) [CBK304610] | 100.285% |
| COCCNC(=O)c1cc(-c2ccccc2C)nc2c1cnn2C(C)C [CBK305392] | 99.0256% |
| CCC1(CC)OC(NC(C)c2ccccc2F)=NC1=O (stereo not drawn) [CBK132018] | 158.722% |
| CSc1nc(NC(=O)c2ccccc2)cc(N2CCNCC2)n1 [CBK050266T] | 100% |
| COc1ccc2c(CC(=O)Nc3sccc3C(N)=O)coc2c1 [CBK295137] | 159.946% |
| Cn1nc(-c2ccc(S(=O)(=O)Nc3nnn[nH]3)s2)cc1C(F)(F)F [CBK062390] | 141.717% |

Gathered by group: the compounds so far with a CF3 group

| Structure (SMILES) | % of control remaining |
| --- | --- |
| CN(Cc1cccc(C(F)(F)F)c1)C(=O)c1cn(CC2CCCO2)nn1 (stereo not drawn) [CBK304360] | 109.204% |
| Cn1nc(-c2ccc(S(=O)(=O)Nc3nnn[nH]3)s2)cc1C(F)(F)F [CBK062390] | 141.717% |

Additional structures

| Structure (SMILES) | % of control remaining |
| --- | --- |
| CCOC(=O)Cc1nnc(-c2cccc(C(F)(F)F)c2)[nH]1 [CBK304385] | 177.713% |
| COc1ccc(-c2cc(C(F)(F)F)nc(S(=O)(=O)CCC(=O)Nc3ccc(C)cc3)n2)cc1 [CBK266235] | 205.225% |
| CSCCOc1cc(N2CCCC2)ncn1 [CBK115900] | 126.037% |
| CCN(CC)S(=O)(=O)c1ccc(OC)c(NC(=O)C2c3ccccc3Oc3ccccc32)c1 [CBK264774] | 124.04% |
| O=C(CSc1ncnc2c1oc1ccccc12)Nc1ccccc1 [CBK057994] | 147.271% |
| CC(CNS(=O)(=O)c1cc(Cl)ccc1Cl)CN(C)C (stereo not drawn) [CBK266808] | 100.785% |
| CC(C)n1c(SCC(=O)Nc2nc(C(C)(C)C)cs2)nc2c1c(=O)n(C)c(=O)n2C [CBK127417] | 83.949% |
| O=C(O)CSc1nc2nc3c(cc2c(=O)n1Cc1ccccc1)CCCC3 [CBK286662] | 117.708% |
| COc1ccccc1NC(=S)NCCN(C)C [CBK265343] | 108.34% |
| Cn1cccc1CNCc1ccccn1 [CBK269818C] | 120.985% |
| COc1cnc(-c2ccsc2)c(NC(=O)c2cc(C)oc2C)n1 [CBK145294] | 146.848% |
| O=C(c1ccco1)N1CCN(c2cc(-c3ccccc3Oc3ccccc3)ncn2)CC1 [CBK037817] | 147.566% |
| Cc1ccc(C2(CN3CCC(NC(=O)C4CC4)CC3)CC2)cc1 [CBK285359] | 142.227% |
| COc1ccc(OC(=O)C2COc3ccccc3O2)cc1 (stereo not drawn) [CBK131816] | 102.474% |
| Cc1cccc(NC(=O)c2cc(NC(=O)C3CCCCC3C(=O)O)ccc2N2CCCCC2)c1 (stereo not drawn) [CBK267332] | 108.599% |
| CC(C)NC(=S)NC(=O)C1CCC1 [CBK010718] | 131.148% |
| COC(=O)C(CC(=O)c1ccc(Br)cc1)n1cccn1 (stereo not drawn) [CBK269338] | 113.713% |
| O=c1oc2ccccc2n1C1CCN(Cc2nc3ccccc3n2Cc2ccccc2)CC1 [CBK286176] | 114.988% |
| CCOC(=O)Cn1c(CCC(=O)O)ccc1-c1ccc(F)cc1 [CBK265916] | 187.404% |
| Oc1ccc(CCNc2ncnc3[nH]cnc23)cc1 [CBK017724C] | 96.1543% |
| O=c1c(N2CCNCC2)nccn1CCc1cccs1 [CBK050382T] | 126.976% |
| CCN(Cc1ccncc1)C(=O)Nc1ccc(N(CC)CC)cc1 [CBK155141] | 121.717% |
| COc1ccccc1N1CCN(C[C@H]2C[N@@]3CC[C@H]2C[C@@H]3CNS(C)(=O)=O)CC1 [CBK288770] | 113.775% |
| Cc1nc(SCc2cccc(C(=O)O)c2)nc2c1CCCC2 [CBK266997] | 143.913% |
| O=C(Cn1cnc2ccc([N+](=O)[O-])cc2c1=O)Nc1ccc(C(=O)O)cc1 [CBK297542] | 153.882% |

Source: publication PMC12040169 (PLOS Biology, 2025)
